This passage reports z-score results from PubChem BioAssay AID1347423 (Functional Genomics Laboratory (NCATS/FGL), 2020).

The whole screen tested about 52,000 sequences, of which about 210 (0.4%) were called active.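 How the source made its calls: active means gene whose silencing raises cell survival under the drug, median off-target-corrected z-score across its silencing RNAs 2 or more; inactive means the rest.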 This is one part of the list.

The nature of the assay: Resistance to Poly (ADP-Ribose) Polymerase inhibitor: Gene Identification via Genome-wide siRNA Screen. Particulars: mouse BRCA2 R2336H ES cells, olaparib, CellTiter-Glo viability; stronger effect = higher value. The method, boiled down: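 Genome-wide siRNA screen (3 siRNAs/gene, 20 nM) in mouse ES cells carrying hypomorphic BRCA2 R2336H; olaparib 500 nM added 48 h post-transfection, CellTiter-Glo viability 72 h later. Normalized to plate-median negative control; MAD z-scores, gene median, seed-adjusted.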
GGAAGAUGAGUUUCAUAAUTT against Htra3: the z-score was inactive: 0.765.
The same measure for GGUAUACGCUCUCGUAUUGTT against Rbbp9: inactive: -0.23; for GCCCAGAAAUAUAAUCAAATT against Bub1: inactive: 0.0523.
Regarding GGCAUUCACUAACCAGUUATT against Nfyb, the z-score was inactive: -0.779.
Consider GGAAUUGGUCUAUAUGCGUTT against Il2ra, for which the z-score is inactive: 0.38.
The same measure for CCUGGUGUUUGUCUGUACUTT against Cxcr6: inactive: 0.449; for “GGAGAUGGCCGACUUCUAUTT against 2810002N01Rik”: inactive: 0.926; for “GGCAAAGCACCUUUAUCUGTT against G430095P16Rik”: inactive: 0.216.
For “GGUGCGUAACUUAUUUUUATT against 2610312E17Rik” the value was inactive: 0.37; for GGAAGAAGACAGCAUGAAGTT against Mpp4, inactive: 0.506; for GGAAAACCUUCAGUCUUUGTT against Slc29a2, inactive: -0.0717.
With GGCCCUAGAUAUUGAUUUUTT against Rbp2, the z-score is inactive: 0.322.
For GGUUACCAUGUGAAGCAGGTT against Tnfrsf14 the value was inactive: -0.79; for “GGAAGAGGAGGUGACAUACTT against 4932702D22Rik”, inactive: 1.06.
For GGUUCUCCAAACUCUGCCATT against Arhgap1 the value was inactive: -2.08; for GGCUGAAAGGUCAGAUUCCTT against Vbp1, inactive: 0.405.
For GCAAAACAUUUCCUGUCUGTT against Zfp316 the value was inactive: -0.443.
Take GGCUUUUUGUUAAGGCAGCTT against BC002199: the z-score is inactive: 2.54.
The same measure for CCUUAGAGAGCUACGCCAUTT against Mrgprh: inactive: 1.24.
In the case of GACAGGAAGUUGAUGAAUUTT against Raet1a, the z-score is inactive: -0.444.
The same measure for CCACACUGUAUAAUACAAUTT against Fndc6: inactive: -2.27; for GGCAAAAGGAAGAGGACGATT against Brd4: inactive: 0.275.
For GGGUAAUGACAUUAGCAGUTT against Pbp the value was inactive: -0.17; for “GGUUGAUUAGAAUUGAUGCTT against 5830467P10Rik”, inactive: -0.223.
The same measure for GGAGAAGUCAUUGUUUUUGTT against Klhdc2: inactive: 0.688.
As for “GCUCAGUAUGUUUGGGAGUTT against 5330416C01Rik”, the z-score was inactive: -1.02.
For CCUGACAAGACAUUUCAAATT against Dusp22 the value was inactive: -0.127; for GGGACUGAAAUCUAUUUUGTT against Zfp217, inactive: 0.967.
The same measure for GGGAAAUUUGUCCUGUUAATT against Hibadh: inactive: -1.14; for GGCUUUUUUGCCAUUGCUATT against Wnt9b: inactive: -0.507.
For GGCACGAUAUUAUUUUCAGTT against Lrfn5 the value was inactive: -0.418; for GGACCGAUAUAACCUACCCTT against Rps4x, inactive: -2.4; for “GGAUAAAAUUGCUUUACUGTT against 3110031B13Rik”, inactive: -0.0332.
As to “GCCUGGCUUGUAACUUCACTT against 1700034H15Rik”, the z-score is inactive: 0.723.
For GGUCUUUGCCCUACAAACATT against Fer1l3 the value was inactive: 0.136.
The same measure for “CUGUAAGGCGGAUAAGACCTT against 2610017I09Rik”: inactive: -0.52; for CCGGGUAGUGAGUAAGCUUTT against Neu2: inactive: 0.304; for GGAUGGCAGCUUUGACCUUTT against Cdc42ep2: inactive: 0.88.
For GCAAUGAACCCUAGAAUUATT against Col4a1, the z-score was inactive: 0.968.
Consider GGGUCUAUACCAUCCGGGATT against Mamdc1, for which the z-score is inactive: -0.412.
The same measure for GGGUAUUGGUUUUAGAGCATT against Emd: inactive: 0.826; for GGUGUAAGAGCUUUGGCCUTT against LOC432436: inactive: 0.478.
For GGCUUGGUAGCCAUCCUCATT against Lrrc27 the value was inactive: 0.453; for GCUUUCUCUUAUGGAUCUATT against Olfr700, inactive: -1.01.
For GGAAUGUUCACUGACAAAGTT against BC023488 the value was inactive: 0.329; for “GAAUAAAUCAGACCACAAATT against 1810020D17Rik”, inactive: 1.33; for GGGCCUGUGAAACUUGUGCTT against Mrps16, inactive: -1.24.
Consider GGAUAAGACUGUUGUCAGATT against Prlpc1, for which the z-score was inactive: -2.91.
The same measure for GGAAGUGAUUGCCAUCAAATT against Sh3bp4: inactive: 1.22; for GGAGAUCCGUCGAAUCAACTT against Anxa4: inactive: 1.7.
The same measure for GCUUAAUCAGCUAAUCAAUTT against Sult1c2: inactive: -0.0973; for “GGUAGUUGUGCCAGAAAAATT against 4931406P16Rik”: inactive: 0.0951; for GCAUACCAUCUUAUUUUGGTT against Sptlc1: inactive: 0.582.
The same measure for “GGGCUACGACAGAAUCAUCTT against C130036J11”: inactive: 2.27; for GGCCAAGUGAUAGAGUUCATT against Crygd: inactive: 0.491; for GCCCUUGAGUGAAAGAGAUTT against Clspn: inactive: -0.948.
Consider GCCCAAAAAAGCUCAGAGUTT against C6.1A, for which the z-score is inactive: -0.234.
For GGUUCAACAUAUCCAUAGCTT against V1re12 the value was inactive: 0.102; for GGAGCUGAUGUAGCCUUCATT against Yif1, inactive: -1.82; for GGCAUCCAAAAUUUUCAACTT against Nxph3, inactive: 1.31.
For GGCGGACAUCACUUAUGAGTT against Gopc the value was inactive: -1.1; for GGCAGCGAUUGACAAAAUGTT against Eefsec, inactive: 0.222; for CCACCAUCAUGAGAGAGGATT against Olfr350, inactive: -0.358.
Consider GGUGCUCUGCCAAACUGUUTT against Mmaa, for which the z-score is inactive: -0.527.
As to “GGCUCCUCAUUACCUCUACTT against 1110014J01Rik”, the z-score is inactive: -2.08.
The same measure for CGCUCAUGAACUUGUACUUTT against Tm7sf1: inactive: -0.709; for “CCGACCCAAUUAAUGAUCATT against 2010305C02Rik”: inactive: -1.85; for CCUGUGAGUACCAGCCAACTT against Gm691: inactive: 0.435.
For GCCAUGGAGCUCAUUUGGATT against Pcnt1 the value was inactive: -0.798.
Regarding GGGUACCUACAUAGACAAGTT against Rps11, the z-score was inactive: -1.87.
For GGAACUACUACUCACCUAUTT against Trhr the value was inactive: -2.12.
For CCCGAAGUCCUGUUUUGCATT against Olig3 the value was inactive: 1.89; for GGAAAACGGAAAAGACAUCTT against Calr3, inactive: 0.37.
On to GCCACGAUGUGUGGAAAUUTT against Cfh, for which the z-score is inactive: -1.72.
In the case of GGCAGAAGAUUGCUUCAGATT against Gm424, the z-score is inactive: 0.232.
For GGACAAGAAGCCACUGACATT against Arrb1 the value was inactive: 1; for GGUUUUUCUUCUGCUGGUGTT against Olfr1256, inactive: 1.52; for GAUGGCUUGUGAAAUACCATT against Hat1, inactive: -0.776.
Regarding GGUUGCCAAUGACACUCGGTT against Als2cr3, the z-score is inactive: 1.76.
The same measure for GGAUCGUAGAACACCCUUCTT against Robo2: inactive: 0.615.
For GGGUCAGUUUUUACAUUUUTT against Cxcl14 the value was inactive: -0.976.
For GGUACAGUUACGGUCAAAUTT against MGC67168 the value was inactive: 0.645; for GGCAAACAUCUGUAUCUAUTT against Golph3, inactive: 0.326; for “GGCGGAAGCCAUCUAACUUTT against 9330140K16Rik”, inactive: 1.02.
Turning to CCUCUAGUUGUCCCUGAAATT against F12, the z-score is inactive: 0.18.
For CCACUUCUACAUACUUAAUTT against Plau the value was inactive: 0.625; for GCUCUCAGAUGACAUCACUTT against Supt5h, inactive: -1.98; for GCCACACAGUGUGAUCCAATT against Nrip2, inactive: -1.71.
For CGGGCAAUGUCAGAUUGUGTT against V1rg6 the value was inactive: -2.98.
For CGCCUUGCCAAUAAGUGAATT against Ostf1 the value was inactive: -0.236; for “GGCUUUGAGAGUUUGUCACTT against 2410004B18Rik”, inactive: 1.29; for GGUCUCUGUACUUUGACUGTT against Cldn19, inactive: 1.26.
As for “GGAAAAUGUUUUACCAAUGTT against 4930470D19Rik”, the z-score was inactive: 0.0823.
For the sequence “GGACCUUUUUAUCCAACGCTT against 2400002F11Rik”, the z-score is inactive: 0.528.
For GGAGCUGCUAUGUACACAUTT against Falz the value was inactive: -0.193.
For GGCAUUGAGAUGCUGGAAATT against Trappc4 the value was inactive: 1.54; for GGAGGUAUCAGGUACCAACTT against Cpne6, inactive: -1.36; for CCAGUUUAAGAGGAUUAUCTT against Ttc3, inactive: 0.276.
The same measure for GCAUAUGAUGGUCCUUACCTT against Cox6b: inactive: -0.818; for GGUCAUUCUCCAAGAACUATT against Ugp2: inactive: -0.689.
As to GGUGCAGUUCAGCAACAAGTT against Mat2b, the z-score is inactive: 2.14.
As to GCAAUAGGCCUCUUAAUUATT against Sirt1, the z-score is inactive: 1.55.
The same measure for CGGGAAGAGUAUCACUUACTT against Elac2: inactive: 0.995; for GGUGGUGUUUCAUAAGAUGTT against Rragc: inactive: 0.792; for GGAGAACUCCAGGUUGGCATT against Eaf1: inactive: -0.154.
